From PubChem BioAssay AID1347426 (Functional Genomics Laboratory (NCATS/FGL), 2020)
Among all 31,000 sequences or so, about 1,400 (4.5%) were called active.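 How the source made its calls: active means median seed-adjusted z-score above 1 or below -1; inactive means the rest.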 The list shows a part of the results.

Assay: Novel Modifiers of Survival Motor Neuron (SMN) Protein: Gene Identification via Genome-wide siRNA Screen;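 further: luminescence tracks full-length SMN protein made from the SMN2 reporter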
Details: HEK293T SMN2-luciferase reporter, siRNA knockdown, 72 h; actives lie on both sides
How it was run: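 Luciferase signal, proportional to full-length SMN made from an SMN2 cDNA reporter in stable HEK293T cells, was read 72 h after siRNA reverse transfection. Values were expressed as MAD scores after non-targeting-control normalization and log10 conversion; seed analysis flagged off-targets.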

| Sequence | median seed-adjusted z-score |
| --- | --- |
| CGACGAAUCCAAACACGAATT against TLN2 | inactive: -0.0106 |
| GCAGAUUGAAUAUAGCUUUTT against MFHAS1 | inactive: -0.267 |
| AAAUCCUGCCUAAUGAUGATT against KLK1 | inactive: -0.216 |
| CAAGGAUUCUGUUUCAACATT against 11-Sep | inactive: -0.245 |
| GCGAAAACAUGGAUGUUCUTT against HERC2 | inactive: 0.98 |
| CUUUAAGACUCAUAACGAATT against GTF2E2 | active: -1.32 |
| GCAUUUCCCAAGACGUGGATT against ZFYVE28 | inactive: 0.0678 |
| ACAUCACGGAGAUUGCAGATT against TNNI3 | inactive: 0.516 |
| GAAUCUCAGAAUGCACAAATT against DDB2 | inactive: 0 |
| GGACUACAAUGGUUAUCAUTT against DNAH9 | inactive: 0.656 |
| GAUUCGUCUUUGUAAAGAATT against CR2 | inactive: 0.71 |
| GUACACGGCUCAUCGAGAATT against RARRES1 | inactive: -0.329 |
| CAGUUUAUGUGGUUCUUCUTT against DOLPP1 | inactive: 0.00977 |
| GCACUUAGUCGAACUACAATT against WDHD1 | inactive: -0.0501 |
| GCUUCGAACCUAAUGAACATT against SGTA | inactive: 0.819 |
| GAGACCAAGUUGGACCUCATT against SLC29A1 | inactive: 0.117 |
| UCAUCAAGUGGUUCCCUGATT against RHOF | inactive: 0.0711 |
| GCAUCAAGGAGACAUAUGATT against FMNL3 | inactive: 0.481 |
| GAAGAACUCGAGAAAAGUATT against MST4 | inactive: 0.343 |
| AAGAGUCAGUUUUCAGAUATT against CHID1 | inactive: 0.199 |
| CAGGGAACAUGUUUGAGAATT against FOXA3 | inactive: 0.128 |
| CAUUGAAACUGAUAAACCATT against ARCN1 | active: -1.25 |
| GCAAUUUUGCAGUAGUCAATT against DCLK2 | inactive: -0.552 |
| CUGUGAACUUUGUACUCCATT against NOX5 | inactive: 0.178 |
| GAACAUCUUUUAGUCUCGATT against CSE1L | inactive: 0.425 |
| GCUCAUUGCCUGCACCACATT against TTLL10 | inactive: 0.211 |
| CCACUAAGAUGUAACUGUUTT against PLSCR2 | inactive: 0 |
| CAAAGACAAGGUCCCAUUUTT against IFI35 | inactive: 0.105 |
| GGCUUAUCUAUUACUACUATT against RBM44 | inactive: -0.00558 |
| GCCGAUAUCUUUCAUGUGATT against PAN2 | inactive: -0.139 |

A different layout for part of the listing above.
GAACAUCUUUUAGUCUCGATT against CSE1L
  median seed-adjusted z-score: inactive: 0.425
GCUCAUUGCCUGCACCACATT against TTLL10
  median seed-adjusted z-score: inactive: 0.211
